The results in this text go back to paper PMC13052075, “Synthesis of 1,2,3,4‐Tetrahydroisoquinoline‐3‐Carboxylic Acid‐Embedded Decapeptides: In Silico Studies and In Vitro Evaluation Against Breast Cancer” (ChemistryOpen, 2025).

In this assay the test system is MCF‐7 human breast cancer cell line. The assay can be described thus: cells. To be noted: MCF7, 24 h. The procedure:
Using GraphPad Prism software, the IC50 values were determined (Figure 8). After conducting the MTT assay, the absorbance data was entered into the software to generate dose–response curves. The nonlinear regression analysis function, specifically log(inhibitor) verus normalized response was employed to calculate the IC50 values for each compound. This method allowed for accurate determination of the concentration required to inhibit 50% of cell viability.
The MTT assay (3‐[4,5‐dimethylthiazol‐2‐yl]‐2,5‐diphenyltetrazolium bromide) was employed to evaluate the anticancer potential of the synthesized compounds against the MCF‐7 human breast cancer cell line. MCF‐7 cells were seeded into a 96‐well plate at a density of 1 × 10^4 cells per well and allowed to adhere for 24 h. Subsequently, the cells were treated with the test compounds at concentrations of 0.1, 1, 2, 5, and 10 µM, prepared in plain Dulbecco's Modified Eagle Medium (DMEM) media. After 24 h of incubation, MTT solution (100 µg per well; Sigma‐Aldrich) was added, and the plates were incubated for an additional 3–4 h to allow the formation of formazan crystals. The resulting formazan was dissolved in DMSO, and absorbance was measured at 570 nm using a microplate reader.

In turn, `CC/C(=C(\c1ccccc1)c1ccc(OCCN(C)C)cc1)c1ccccc1` [Tamoxifen, tamoxifen] returned an IC50 of 2.68 µM.

The IC50 is the point on the concentration scale where inhibition reaches its midpoint. A lower IC50 goes with greater potency in that assay.
